Data reported in article PMC5962642, “Dynamic imaging of adaptive stress response pathway activation for prediction of drug induced liver injury” (Archives of Toxicology, 2018).

Columns and labels:
[1] = C-max obtained from FDA or literature; ref per compound (FDA, Dailymed, Xu, O’Brien, Khetani, Regenthal, Gustafsson, Dawson, Ogutu, Patel, Schmidt, Ravic, Keisu, Hu, Wagner); cited from earlier work
[2] = two classes made from the FDA DILI-concern labeling
[3] = ref livertox.nih.gov database; cited from earlier work

Compound: COC(=O)C1=C(C)NC(C)=C(C(=O)OC)C1c1ccccc1[N+](=O)[O-] [Nifedipine]
- Cmax [1]: 430 nM
- Severity class [2]: Non-sev.
- Metab (metabolic potential) [3]: YES
